# These are yes or no findings as the source states them, for the method shown. Some binding calls cover weakened binding; strength is not graded here. Sequences can lack the tags named with a protein.
# Target: T1, synthetic Hd1 microProtein (Hd1miP), fused to the GAL4 binding domain (rice (Oryza sativa)) (UniProt Q9FDX8)
# T1 sequence: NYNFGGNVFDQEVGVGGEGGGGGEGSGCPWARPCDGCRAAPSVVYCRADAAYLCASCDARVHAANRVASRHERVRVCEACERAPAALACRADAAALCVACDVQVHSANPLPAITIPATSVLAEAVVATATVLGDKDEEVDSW
# Assay: two-hybrid
substance,measurement,value
"HEADING DATE 1 (Hd1) full length, fused to the GAL4 activation domain (from UniProt Q9FDX8 1-395)",binding,binds

# Source: article doi:10.1101/266486
